Some of the results follow.
Assays:
Assay in all cases: log2 fold change, soluble protein after heating vs DMSO (PISA); higher = thermal stabilisation; K562 lysate, 10 uM; active = over 0.2 and 3.5 SD of the protein, either way, in both replicates (recomputed)
alvocidib = compound: CN1CC[C@H](c2c(O)cc(O)c3c(=O)cc(-c4ccccc4Cl)oc23)[C@H](O)C1 [alvocidib]
Procedure, shortened: (§1)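 Dounce homogenisation of K562 pellets in PBS pH 7.4 with 1 mM MgCl2 produced a crude extract, used at 1 mg/mL protein. Exposure to 10 μM compound lasted 30 min, and aliquots were then heated for 3 min across 48°C-58°C, pooled and brought to 0.5% NP-40 at 4°C. The supernatant after 21,000xg for 90 min was quantified by TMTpro 16plex LC-MS/MS with channel sums equalised. Duplicate values are given as log-two fold change in thermal stability relative to solvent controls.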

Sequences of proteins named here, by UniProt entry; tags and fusion partners are left off. A change or cut given only in a name is not applied to a line headed by its entry.
UniProt P49257: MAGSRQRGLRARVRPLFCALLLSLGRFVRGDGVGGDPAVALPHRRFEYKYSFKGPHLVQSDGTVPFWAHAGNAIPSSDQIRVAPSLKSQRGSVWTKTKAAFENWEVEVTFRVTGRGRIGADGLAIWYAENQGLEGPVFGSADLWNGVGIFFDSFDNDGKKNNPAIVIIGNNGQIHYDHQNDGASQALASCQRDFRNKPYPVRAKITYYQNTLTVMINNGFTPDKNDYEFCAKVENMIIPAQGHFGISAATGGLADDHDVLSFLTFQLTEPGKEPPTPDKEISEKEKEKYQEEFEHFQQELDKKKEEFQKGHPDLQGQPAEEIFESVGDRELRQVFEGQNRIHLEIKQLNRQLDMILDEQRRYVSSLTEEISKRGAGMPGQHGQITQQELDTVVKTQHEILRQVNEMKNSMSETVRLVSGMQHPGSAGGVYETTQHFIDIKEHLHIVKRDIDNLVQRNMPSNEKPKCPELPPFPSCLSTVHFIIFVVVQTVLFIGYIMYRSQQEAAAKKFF
UniProt Q9NUN5: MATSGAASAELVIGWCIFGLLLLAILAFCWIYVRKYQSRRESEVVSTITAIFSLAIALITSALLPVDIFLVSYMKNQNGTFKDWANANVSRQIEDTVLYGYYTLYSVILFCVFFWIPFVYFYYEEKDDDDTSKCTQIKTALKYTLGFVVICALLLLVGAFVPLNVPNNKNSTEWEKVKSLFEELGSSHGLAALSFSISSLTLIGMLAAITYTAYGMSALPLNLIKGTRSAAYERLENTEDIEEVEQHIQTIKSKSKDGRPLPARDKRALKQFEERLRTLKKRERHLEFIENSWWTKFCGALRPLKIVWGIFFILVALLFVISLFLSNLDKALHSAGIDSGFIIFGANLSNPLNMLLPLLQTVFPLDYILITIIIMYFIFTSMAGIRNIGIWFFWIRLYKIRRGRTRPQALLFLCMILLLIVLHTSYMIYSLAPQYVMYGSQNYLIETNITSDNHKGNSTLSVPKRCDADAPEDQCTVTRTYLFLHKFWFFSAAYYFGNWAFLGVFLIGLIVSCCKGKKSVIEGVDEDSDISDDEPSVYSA
UniProt Q9UFC0: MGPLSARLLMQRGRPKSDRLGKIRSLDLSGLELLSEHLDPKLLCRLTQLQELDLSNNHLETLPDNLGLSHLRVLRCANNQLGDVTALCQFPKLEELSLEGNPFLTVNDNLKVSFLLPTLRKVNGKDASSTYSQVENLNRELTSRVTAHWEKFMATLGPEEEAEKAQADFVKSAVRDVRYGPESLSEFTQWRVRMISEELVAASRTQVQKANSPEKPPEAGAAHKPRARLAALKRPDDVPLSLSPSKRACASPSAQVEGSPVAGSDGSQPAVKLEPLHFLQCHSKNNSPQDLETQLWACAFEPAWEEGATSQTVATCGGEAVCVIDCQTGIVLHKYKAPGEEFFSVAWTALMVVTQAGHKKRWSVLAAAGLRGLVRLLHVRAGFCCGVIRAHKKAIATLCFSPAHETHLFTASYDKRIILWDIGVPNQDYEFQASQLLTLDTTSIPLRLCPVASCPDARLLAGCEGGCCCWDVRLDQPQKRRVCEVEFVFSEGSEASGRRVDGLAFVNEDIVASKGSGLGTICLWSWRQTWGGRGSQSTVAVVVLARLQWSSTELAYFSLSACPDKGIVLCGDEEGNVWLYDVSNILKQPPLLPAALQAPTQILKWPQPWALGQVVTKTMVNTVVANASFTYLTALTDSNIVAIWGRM
UniProt Q13094: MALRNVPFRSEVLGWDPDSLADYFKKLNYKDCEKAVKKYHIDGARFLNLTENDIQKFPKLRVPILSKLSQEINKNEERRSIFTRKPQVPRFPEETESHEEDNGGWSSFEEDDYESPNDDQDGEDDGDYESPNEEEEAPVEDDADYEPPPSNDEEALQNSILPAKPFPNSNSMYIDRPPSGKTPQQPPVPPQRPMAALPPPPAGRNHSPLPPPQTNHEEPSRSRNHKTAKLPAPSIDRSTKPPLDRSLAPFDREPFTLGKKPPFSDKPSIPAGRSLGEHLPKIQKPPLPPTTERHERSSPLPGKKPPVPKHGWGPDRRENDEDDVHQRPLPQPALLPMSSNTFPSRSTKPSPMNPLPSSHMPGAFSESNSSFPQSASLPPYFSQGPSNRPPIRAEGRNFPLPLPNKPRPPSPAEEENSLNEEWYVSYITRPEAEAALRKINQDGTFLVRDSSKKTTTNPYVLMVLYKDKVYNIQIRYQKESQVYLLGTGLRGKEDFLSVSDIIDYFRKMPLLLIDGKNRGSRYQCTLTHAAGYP
UniProt Q8N1G4: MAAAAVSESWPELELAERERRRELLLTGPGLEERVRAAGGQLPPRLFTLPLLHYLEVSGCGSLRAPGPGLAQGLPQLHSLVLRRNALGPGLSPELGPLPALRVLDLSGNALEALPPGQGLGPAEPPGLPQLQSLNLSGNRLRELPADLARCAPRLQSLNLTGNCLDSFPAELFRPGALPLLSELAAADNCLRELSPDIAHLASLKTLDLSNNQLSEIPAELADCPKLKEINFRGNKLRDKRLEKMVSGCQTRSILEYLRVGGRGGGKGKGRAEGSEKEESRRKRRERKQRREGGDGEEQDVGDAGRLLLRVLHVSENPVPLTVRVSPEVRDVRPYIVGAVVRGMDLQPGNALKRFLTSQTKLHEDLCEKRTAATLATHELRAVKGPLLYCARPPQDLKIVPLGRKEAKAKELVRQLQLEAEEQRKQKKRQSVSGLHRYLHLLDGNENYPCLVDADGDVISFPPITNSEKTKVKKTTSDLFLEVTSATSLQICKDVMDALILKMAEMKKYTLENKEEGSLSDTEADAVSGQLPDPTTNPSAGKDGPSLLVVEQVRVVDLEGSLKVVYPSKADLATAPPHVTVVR
UniProt Q6ZN17: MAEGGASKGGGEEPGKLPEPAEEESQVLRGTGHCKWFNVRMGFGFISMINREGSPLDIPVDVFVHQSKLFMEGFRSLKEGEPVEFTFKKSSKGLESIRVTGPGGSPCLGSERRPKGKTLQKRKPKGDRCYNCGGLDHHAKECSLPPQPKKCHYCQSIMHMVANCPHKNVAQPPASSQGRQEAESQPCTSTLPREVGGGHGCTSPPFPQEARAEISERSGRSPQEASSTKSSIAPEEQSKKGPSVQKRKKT
UniProt Q9H6V9: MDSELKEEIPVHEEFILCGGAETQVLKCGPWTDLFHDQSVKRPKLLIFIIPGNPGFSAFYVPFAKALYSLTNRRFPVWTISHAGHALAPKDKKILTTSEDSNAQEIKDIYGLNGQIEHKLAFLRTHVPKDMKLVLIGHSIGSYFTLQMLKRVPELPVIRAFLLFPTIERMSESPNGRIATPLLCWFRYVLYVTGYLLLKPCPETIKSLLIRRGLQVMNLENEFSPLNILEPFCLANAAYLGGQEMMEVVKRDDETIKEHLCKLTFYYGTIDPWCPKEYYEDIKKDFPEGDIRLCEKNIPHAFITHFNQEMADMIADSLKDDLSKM
UniProt Q9Y333: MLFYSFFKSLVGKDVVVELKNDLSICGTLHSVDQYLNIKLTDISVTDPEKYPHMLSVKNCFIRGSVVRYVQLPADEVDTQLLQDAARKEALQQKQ
UniProt Q8ND56: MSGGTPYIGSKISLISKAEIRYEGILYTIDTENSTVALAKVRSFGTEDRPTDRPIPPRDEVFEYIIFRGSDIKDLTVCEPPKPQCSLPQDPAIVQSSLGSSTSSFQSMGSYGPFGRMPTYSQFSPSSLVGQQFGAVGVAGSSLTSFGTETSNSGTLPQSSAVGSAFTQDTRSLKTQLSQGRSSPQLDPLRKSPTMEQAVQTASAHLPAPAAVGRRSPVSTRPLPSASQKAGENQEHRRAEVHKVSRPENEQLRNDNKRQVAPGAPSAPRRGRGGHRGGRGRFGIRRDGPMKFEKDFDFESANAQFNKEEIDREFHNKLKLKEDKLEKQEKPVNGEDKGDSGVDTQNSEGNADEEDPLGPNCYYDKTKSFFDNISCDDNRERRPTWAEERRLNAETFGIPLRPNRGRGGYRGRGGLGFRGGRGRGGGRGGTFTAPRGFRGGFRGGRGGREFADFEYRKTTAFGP
UniProt Q14693: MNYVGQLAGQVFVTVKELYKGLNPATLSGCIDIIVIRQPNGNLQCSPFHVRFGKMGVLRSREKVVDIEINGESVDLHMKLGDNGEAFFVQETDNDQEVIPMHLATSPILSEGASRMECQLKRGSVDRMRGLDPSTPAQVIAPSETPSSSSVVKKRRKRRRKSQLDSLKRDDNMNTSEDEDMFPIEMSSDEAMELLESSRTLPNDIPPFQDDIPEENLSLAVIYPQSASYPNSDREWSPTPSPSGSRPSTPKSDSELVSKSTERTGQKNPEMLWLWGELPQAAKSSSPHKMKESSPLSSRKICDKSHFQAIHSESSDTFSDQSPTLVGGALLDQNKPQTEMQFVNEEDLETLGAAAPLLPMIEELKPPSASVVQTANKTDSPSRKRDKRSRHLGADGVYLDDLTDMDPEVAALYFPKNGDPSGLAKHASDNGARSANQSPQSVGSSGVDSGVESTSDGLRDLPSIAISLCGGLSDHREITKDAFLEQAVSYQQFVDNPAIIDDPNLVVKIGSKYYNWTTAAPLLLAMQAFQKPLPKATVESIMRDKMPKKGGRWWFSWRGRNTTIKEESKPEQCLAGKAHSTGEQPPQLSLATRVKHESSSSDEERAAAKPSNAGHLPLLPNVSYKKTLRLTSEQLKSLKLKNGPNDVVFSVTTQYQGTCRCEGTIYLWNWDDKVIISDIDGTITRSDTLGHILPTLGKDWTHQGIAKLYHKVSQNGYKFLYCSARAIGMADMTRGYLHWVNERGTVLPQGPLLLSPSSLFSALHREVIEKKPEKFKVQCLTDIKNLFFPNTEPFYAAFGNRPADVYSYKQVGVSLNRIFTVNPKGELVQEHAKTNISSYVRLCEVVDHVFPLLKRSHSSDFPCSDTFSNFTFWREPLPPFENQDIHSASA
UniProt Q32MZ4: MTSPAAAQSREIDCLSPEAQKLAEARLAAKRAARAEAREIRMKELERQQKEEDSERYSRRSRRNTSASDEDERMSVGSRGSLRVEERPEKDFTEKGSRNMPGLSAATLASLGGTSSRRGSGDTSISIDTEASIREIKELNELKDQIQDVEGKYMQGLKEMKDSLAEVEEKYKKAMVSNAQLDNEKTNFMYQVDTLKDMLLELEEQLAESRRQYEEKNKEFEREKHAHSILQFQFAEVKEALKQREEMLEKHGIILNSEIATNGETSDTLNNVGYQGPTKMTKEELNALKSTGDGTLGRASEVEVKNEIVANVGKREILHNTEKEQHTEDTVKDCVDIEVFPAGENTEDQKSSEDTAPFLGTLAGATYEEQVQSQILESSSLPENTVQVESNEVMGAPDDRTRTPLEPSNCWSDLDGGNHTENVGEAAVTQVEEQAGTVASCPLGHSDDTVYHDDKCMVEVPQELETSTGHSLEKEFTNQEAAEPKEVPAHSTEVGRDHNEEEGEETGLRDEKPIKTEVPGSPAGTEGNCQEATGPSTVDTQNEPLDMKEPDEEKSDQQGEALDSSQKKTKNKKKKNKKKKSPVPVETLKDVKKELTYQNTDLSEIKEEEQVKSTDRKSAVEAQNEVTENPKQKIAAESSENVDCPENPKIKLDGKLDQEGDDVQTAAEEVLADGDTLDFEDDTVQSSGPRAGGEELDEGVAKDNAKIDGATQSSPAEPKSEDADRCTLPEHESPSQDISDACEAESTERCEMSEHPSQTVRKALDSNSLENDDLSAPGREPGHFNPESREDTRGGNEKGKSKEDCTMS
UniProt O60294: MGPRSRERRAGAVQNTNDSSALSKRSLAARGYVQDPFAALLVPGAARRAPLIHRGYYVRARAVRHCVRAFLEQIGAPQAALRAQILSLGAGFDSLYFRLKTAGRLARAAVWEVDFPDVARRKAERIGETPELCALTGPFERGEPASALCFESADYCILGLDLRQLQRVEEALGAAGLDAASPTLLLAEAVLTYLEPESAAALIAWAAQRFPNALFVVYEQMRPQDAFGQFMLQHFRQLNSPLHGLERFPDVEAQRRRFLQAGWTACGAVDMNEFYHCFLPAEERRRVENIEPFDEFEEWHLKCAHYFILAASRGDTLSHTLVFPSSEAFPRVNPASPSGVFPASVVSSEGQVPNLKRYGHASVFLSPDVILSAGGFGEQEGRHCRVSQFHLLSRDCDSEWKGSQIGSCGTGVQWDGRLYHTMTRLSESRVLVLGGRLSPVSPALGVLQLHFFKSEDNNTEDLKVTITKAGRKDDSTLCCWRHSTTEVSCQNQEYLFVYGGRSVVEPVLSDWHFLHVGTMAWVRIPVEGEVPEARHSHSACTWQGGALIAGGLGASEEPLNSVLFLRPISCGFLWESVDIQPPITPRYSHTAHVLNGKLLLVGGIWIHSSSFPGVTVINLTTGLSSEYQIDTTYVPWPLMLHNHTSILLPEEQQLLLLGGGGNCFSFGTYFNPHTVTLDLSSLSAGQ

Tubastatin A = compound: CN1CCc2c(c3ccccc3n2Cc2ccc(C(=O)NO)cc2)C1 [Tubastatin A]
Procedure, shortened: as §1

[1] = compound: CNC(=O)C1=CC=CC=C1NC2=NC(=NC=C2Cl)NC3=C(C=C(C=C3)N4CCOCC4)OC
Procedure, shortened: as §1

defactinib = compound: CNC(=O)c1ccc(Nc2ncc(C(F)(F)F)c(NCc3nccnc3N(C)S(C)(=O)=O)n2)cc1 [defactinib]
Procedure, shortened: as §1

[2] = compound: CNc1nc(-c2ccc3c(N)n[nH]c3c2)cc(N2C[C@@H](C(=O)NC3CCCCC3)CC[C@H]2C)n1
Procedure, shortened: as §1

encorafenib = compound: COC(=O)N[C@@H](C)CNc1nccc(-c2cn(C(C)C)nc2-c2cc(Cl)cc(NS(C)(=O)=O)c2F)n1 [encorafenib]
Procedure, shortened: as §1

[3] = compound: COC(=O)[C@H](CCSC)NC(=O)C1=C(C=C(C=C1)NC[C@H](CS)N)C2=CC=CC=C2
Procedure, shortened: as §1

alisertib = compound: COc1cc(Nc2ncc3c(n2)-c2ccc(Cl)cc2C(c2c(F)cccc2OC)=NC3)ccc1C(=O)O [alisertib]
Procedure, shortened: as §1

[4] = compound: COc1cc2nc(-c3cc(F)ccc3O)nc(N[C@@H]3CNC[C@H]3C(C)(C)O)c2cc1OC
Procedure, shortened: as §1

gefitinib = compound: COc1cc2ncnc(Nc3ccc(F)c(Cl)c3)c2cc1OCCCN1CCOCC1 [gefitinib]
Procedure, shortened: as §1

lapatinib = compound: CS(=O)(=O)CCNCc1ccc(-c2ccc3ncnc(Nc4ccc(OCc5cccc(F)c5)c(Cl)c4)c3c2)o1 [lapatinib]
Procedure, shortened: as §1

pictilisib = compound: CS(=O)(=O)N1CCN(Cc2cc3nc(-c4cccc5[nH]ncc45)nc(N4CCOCC4)c3s2)CC1 [pictilisib]
Procedure, shortened: as §1

crizotinib = compound: C[C@@H](Oc1cc(-c2cnn(C3CCNCC3)c2)cnc1N)c1c(Cl)ccc(F)c1Cl [crizotinib]
Procedure, shortened: as §1

[5] = compound: C[C@H](C1=CC=C(C=C1)C(=O)NC2=C3C=CNC3=NC=C2)N
Procedure, shortened: as §1

duvelisib = compound: C[C@H](Nc1ncnc2nc[nH]c12)c1cc2cccc(Cl)c2c(=O)n1-c1ccccc1 [duvelisib]
Procedure, shortened: as §1

gandotinib = compound: Cc1cc(Nc2cc(CN3CCOCC3)c3nc(C)c(Cc4ccc(Cl)cc4F)n3n2)n[nH]1 [gandotinib]
Procedure, shortened: as §1

tozasertib = compound: Cc1cc(Nc2cc(N3CCN(C)CC3)nc(Sc3ccc(NC(=O)C4CC4)cc3)n2)n[nH]1 [tozasertib]
Procedure, shortened: as §1

doramapimod = compound: Cc1ccc(-n2nc(C(C)(C)C)cc2NC(=O)Nc2ccc(OCCN3CCOCC3)c3ccccc23)cc1 [doramapimod]
Procedure, shortened: as §1

bafetinib = compound: Cc1ccc(NC(=O)c2ccc(CN3CC[C@H](N(C)C)C3)c(C(F)(F)F)c2)cc1Nc1nccc(-c2cncnc2)n1 [bafetinib]
Procedure, shortened: as §1

[6] = compound: Cc1cccc(CC(=O)N2CCc3c2ccc(-c2cn(C)c4ncnc(N)c24)c3F)n1
Procedure, shortened: as §1

Measured: log2 fold change

LMAN1 (UniProt P49257)
inactive: alvocidib 0.012 | Tubastatin A 0.045 | [1] -0.006 | defactinib 0.024 | [2] 0.046 | encorafenib 0.057 | [3] -0.045 | alisertib -0.036 | [4] 0.017 | gefitinib 0.024 | lapatinib -0.007 | pictilisib 0.005 | crizotinib 0 | [5] 0.064 | duvelisib 0.01 | gandotinib -0.063 | tozasertib 0.049 | doramapimod 0.036 | bafetinib -0.047 | [6] 0.023

LMBRD1 (UniProt Q9NUN5)
inactive: alvocidib -0.132 | Tubastatin A -0.024 | [1] 0.019 | defactinib 0.004 | [2] 0.012 | encorafenib 0.11 | [3] -0.017 | alisertib 0.009 | [4] 0.008 | gefitinib -0.035 | lapatinib -0.027 | pictilisib 0.045 | crizotinib 0.01 | [5] 0.083 | duvelisib -0.024 | gandotinib 0.122 | tozasertib -0.07 | doramapimod -0.01 | bafetinib 0.018 | [6] -0.049

LRWD1 (UniProt Q9UFC0)
inactive: alvocidib 0.027 | Tubastatin A -0.2 | [1] -0.049 | defactinib 0.059 | [2] -0.051 | encorafenib 0.01 | [3] 0.11 | alisertib -0.001 | [4] 0.017 | gefitinib -0.024 | lapatinib -0.026 | pictilisib -0.049 | crizotinib -0.199 | [5] -0.011 | duvelisib 0 | gandotinib -0.102 | tozasertib -0.007 | doramapimod 0.029 | bafetinib -0.082 | [6] 0.019

LCP2 (UniProt Q13094)
inactive: alvocidib 0.016 | Tubastatin A -0.016 | [1] 0.025 | defactinib 0.018 | [2] -0.036 | encorafenib -0.019 | [3] -0.072 | alisertib -0.034 | [4] -0.007 | gefitinib 0.029 | lapatinib 0.004 | pictilisib 0.003 | crizotinib 0.003 | [5] 0.036 | duvelisib -0.088 | gandotinib 0.001 | tozasertib 0.014 | doramapimod 0.02 | bafetinib -0.027 | [6] -0.048

LRRC47 (UniProt Q8N1G4)
inactive: alvocidib -0.007 | Tubastatin A 0.051 | [1] -0.02 | defactinib -0.003 | [2] -0.002 | encorafenib -0.016 | [3] -0.002 | alisertib 0.009 | [4] -0.008 | gefitinib -0.048 | lapatinib 0 | pictilisib -0.008 | crizotinib 0.029 | [5] -0.047 | duvelisib 0 | gandotinib 0.014 | tozasertib -0.024 | doramapimod 0.01 | bafetinib 0.007 | [6] 0.018

LIN28B (UniProt Q6ZN17)
inactive: alvocidib -0.014 | Tubastatin A -0.046 | [1] -0.005 | defactinib -0.009 | [2] -0.021 | encorafenib -0.018 | [3] 0.011 | alisertib 0.001 | [4] -0.036 | gefitinib 0.008 | lapatinib 0.006 | pictilisib 0.024 | crizotinib 0.024 | [5] -0.031 | duvelisib -0.011 | gandotinib -0.005 | tozasertib 0.002 | doramapimod 0.027 | bafetinib 0.005 | [6] 0.04

LDAH isoform 2 (UniProt Q9H6V9)
inactive: alvocidib 0.003 | Tubastatin A -0.124 | [1] -0.012 | defactinib 0.012 | [2] -0.027 | encorafenib -0.03 | [3] 0.048 | alisertib 0 | [4] -0.036 | gefitinib 0.004 | lapatinib 0.014 | pictilisib 0.006 | crizotinib -0.062 | [5] -0.016 | duvelisib 0.008 | gandotinib -0.036 | tozasertib 0.06 | doramapimod 0.021 | bafetinib -0.01 | [6] 0.143

LSM2 (UniProt Q9Y333)
inactive: alvocidib 0.004 | Tubastatin A 0.05 | [1] 0.001 | defactinib -0.056 | [2] 0.014 | encorafenib -0.012 | [3] 0.003 | alisertib 0.003 | [4] 0.025 | gefitinib -0.028 | lapatinib -0.021 | pictilisib 0.009 | crizotinib -0.004 | [5] -0.082 | duvelisib 0.024 | gandotinib 0.006 | tozasertib 0.041 | doramapimod -0.026 | bafetinib -0.021 | [6] -0.009

LSM14A isoform 2 (UniProt Q8ND56)
inactive: alvocidib 0.009 | Tubastatin A -0.024 | [1] -0.01 | defactinib 0.053 | [2] 0.02 | encorafenib 0.02 | [3] -0.036 | alisertib 0.015 | [4] 0.015 | gefitinib -0.038 | lapatinib -0.035 | pictilisib -0.003 | crizotinib 0.089 | [5] -0.015 | duvelisib -0.022 | gandotinib 0.048 | tozasertib 0.018 | doramapimod -0.021 | bafetinib 0.038 | [6] -0.006

Copied from the listing (two entries):
LIN28B (UniProt Q6ZN17)
inactive: alvocidib -0.014 | Tubastatin A -0.046 | [1] -0.005 | defactinib -0.009 | [2] -0.021 | encorafenib -0.018 | [3] 0.011 | alisertib 0.001 | [4] -0.036 | gefitinib 0.008 | lapatinib 0.006 | pictilisib 0.024 | crizotinib 0.024 | [5] -0.031 | duvelisib -0.011 | gandotinib -0.005 | tozasertib 0.002 | doramapimod 0.027 | bafetinib 0.005 | [6] 0.04

LDAH isoform 2 (UniProt Q9H6V9)
inactive: alvocidib 0.003 | Tubastatin A -0.124 | [1] -0.012 | defactinib 0.012 | [2] -0.027 | encorafenib -0.03 | [3] 0.048 | alisertib 0 | [4] -0.036 | gefitinib 0.004 | lapatinib 0.014 | pictilisib 0.006 | crizotinib -0.062 | [5] -0.016 | duvelisib 0.008 | gandotinib -0.036 | tozasertib 0.06 | doramapimod 0.021 | bafetinib -0.01 | [6] 0.143

Next entries follow:

LRSAM1 (UniProt Q6UWE0)
inactive: alvocidib -0.051 | Tubastatin A -0.002 | [1] 0.011 | defactinib -0.006 | [2] 0.045 | encorafenib 0.009 | [3] -0.07 | alisertib -0.021 | [4] 0.007 | gefitinib 0.015 | lapatinib 0.026 | pictilisib -0.021 | crizotinib 0.008 | [5] -0.021 | duvelisib -0.018 | gandotinib 0.004 | tozasertib -0.002 | doramapimod 0.027 | bafetinib 0.045 | [6] 0.014

LPIN1 isoform 7 (UniProt Q14693)
inactive: alvocidib -0.054 | Tubastatin A -0.05 | [1] -0.006 | defactinib 0.003 | [2] -0.1 | encorafenib 0.089 | [3] -0.064 | alisertib -0.028 | [4] 0.007 | gefitinib -0.04 | lapatinib -0.052 | pictilisib -0.082 | crizotinib -0.035 | [5] -0.069 | duvelisib -0.097 | gandotinib -0.005 | tozasertib 0.012 | doramapimod 0.013 | bafetinib -0.04 | [6] 0.097

LRRFIP1 (UniProt Q32MZ4)
inactive: alvocidib -0.024 | Tubastatin A 0.039 | [1] -0.001 | defactinib -0.021 | [2] 0.02 | encorafenib 0.014 | [3] -0.035 | alisertib -0.007 | [4] 0.006 | gefitinib 0.013 | lapatinib -0.001 | pictilisib 0.001 | crizotinib 0.03 | [5] -0.022 | duvelisib 0.044 | gandotinib 0.06 | tozasertib 0.024 | doramapimod -0.015 | bafetinib -0.017 | [6] 0.027

LTA4H (UniProt P09960)
inactive: alvocidib 0.026 | Tubastatin A 0.01 | [1] 0.005 | defactinib -0.032 | [2] 0 | encorafenib -0.008 | [3] -0.041 | alisertib -0.001 | [4] 0.008 | gefitinib -0.005 | lapatinib -0.008 | pictilisib -0.003 | crizotinib 0.028 | [5] -0.006 | duvelisib 0.017 | gandotinib 0.028 | tozasertib 0.009 | doramapimod -0.004 | bafetinib 0.213 | [6] -0.026

LCMT2 (UniProt O60294)
inactive: alvocidib 0.033 | Tubastatin A 0.098 | [1] -0.02 | defactinib -0.102 | [2] -0.029 | encorafenib 0.039 | [3] -0.041 | alisertib -0.041 | [4] -0.022 | gefitinib -0.069 | lapatinib 0.052 | pictilisib -0.042 | crizotinib -0.149 | [5] -0.006 | duvelisib 0 | gandotinib 0.017 | tozasertib 0.034 | doramapimod -0.133 | bafetinib -0.121 | [6] -0.045

LRBA (UniProt P50851)
inactive: alvocidib -0.01 | Tubastatin A -0.031 | [1] 0.003 | defactinib 0.004 | [2] -0.005 | encorafenib 0.027 | [3] -0.03 | alisertib 0.016 | [4] 0 | gefitinib -0.004 | lapatinib 0.003 | pictilisib -0.012 | crizotinib -0.025 | [5] -0.049 | duvelisib 0 | gandotinib 0.023 | tozasertib 0.005 | doramapimod 0.01 | bafetinib -0.052 | [6] 0.074
